From doi:10.1101/2021.01.28.428634
These are yes or no findings as the source states them, for the method shown. Binding seen in cells or lysates may run through a third protein. Some binding calls cover weakened binding; strength is not graded here.

Chains of the proteins cited; added tags and fusions are not shown.
UniProt Q61879: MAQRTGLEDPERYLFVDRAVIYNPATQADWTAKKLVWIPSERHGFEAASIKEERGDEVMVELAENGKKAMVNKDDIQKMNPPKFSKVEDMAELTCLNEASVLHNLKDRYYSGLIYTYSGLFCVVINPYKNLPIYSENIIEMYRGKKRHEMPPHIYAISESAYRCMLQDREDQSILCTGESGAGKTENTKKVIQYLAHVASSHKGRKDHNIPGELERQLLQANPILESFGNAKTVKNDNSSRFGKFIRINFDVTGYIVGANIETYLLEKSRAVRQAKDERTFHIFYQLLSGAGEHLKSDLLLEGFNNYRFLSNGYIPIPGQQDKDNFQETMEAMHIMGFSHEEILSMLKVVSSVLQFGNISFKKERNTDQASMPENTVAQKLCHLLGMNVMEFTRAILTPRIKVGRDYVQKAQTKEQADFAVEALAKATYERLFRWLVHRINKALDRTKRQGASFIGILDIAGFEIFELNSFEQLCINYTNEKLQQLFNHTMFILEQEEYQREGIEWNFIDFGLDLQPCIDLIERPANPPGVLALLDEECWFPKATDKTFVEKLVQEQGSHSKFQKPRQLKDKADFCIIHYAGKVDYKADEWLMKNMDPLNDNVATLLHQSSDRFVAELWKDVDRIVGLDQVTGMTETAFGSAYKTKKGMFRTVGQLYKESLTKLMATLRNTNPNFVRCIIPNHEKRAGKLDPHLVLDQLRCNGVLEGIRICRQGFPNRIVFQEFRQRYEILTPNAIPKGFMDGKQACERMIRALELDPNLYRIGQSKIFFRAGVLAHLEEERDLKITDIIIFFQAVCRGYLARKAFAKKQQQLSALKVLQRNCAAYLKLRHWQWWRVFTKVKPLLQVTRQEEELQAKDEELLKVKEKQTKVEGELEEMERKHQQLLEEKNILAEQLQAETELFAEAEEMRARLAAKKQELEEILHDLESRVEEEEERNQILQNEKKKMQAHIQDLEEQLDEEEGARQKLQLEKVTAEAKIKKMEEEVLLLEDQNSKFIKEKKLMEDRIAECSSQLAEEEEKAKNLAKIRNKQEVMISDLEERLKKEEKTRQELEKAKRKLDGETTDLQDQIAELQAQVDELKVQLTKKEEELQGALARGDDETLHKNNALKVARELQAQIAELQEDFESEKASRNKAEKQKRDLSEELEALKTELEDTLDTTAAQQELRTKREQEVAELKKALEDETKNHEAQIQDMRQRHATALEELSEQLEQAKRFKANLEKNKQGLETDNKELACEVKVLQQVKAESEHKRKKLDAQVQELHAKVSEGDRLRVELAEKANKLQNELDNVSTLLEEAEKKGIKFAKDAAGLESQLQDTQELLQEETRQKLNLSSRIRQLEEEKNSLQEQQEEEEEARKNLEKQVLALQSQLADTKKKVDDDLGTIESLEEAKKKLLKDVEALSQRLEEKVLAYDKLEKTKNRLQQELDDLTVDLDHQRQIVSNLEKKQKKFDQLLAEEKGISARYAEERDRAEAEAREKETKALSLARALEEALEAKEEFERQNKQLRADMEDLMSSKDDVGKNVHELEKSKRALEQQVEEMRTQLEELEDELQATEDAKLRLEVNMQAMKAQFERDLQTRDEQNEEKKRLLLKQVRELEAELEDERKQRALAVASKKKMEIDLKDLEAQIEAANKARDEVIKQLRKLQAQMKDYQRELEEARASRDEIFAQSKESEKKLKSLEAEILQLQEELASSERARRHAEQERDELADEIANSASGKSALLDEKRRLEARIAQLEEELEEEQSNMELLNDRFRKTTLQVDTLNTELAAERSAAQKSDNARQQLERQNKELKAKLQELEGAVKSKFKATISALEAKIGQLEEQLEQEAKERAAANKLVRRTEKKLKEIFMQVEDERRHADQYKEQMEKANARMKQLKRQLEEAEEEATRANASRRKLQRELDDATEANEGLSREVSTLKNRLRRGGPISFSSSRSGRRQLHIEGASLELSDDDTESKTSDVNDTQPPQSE

Target: T1, SPECC1L (wildtype) (mouse (endogenous in embryonic tissue)) (UniProt Q2KN98)
T1 sequence: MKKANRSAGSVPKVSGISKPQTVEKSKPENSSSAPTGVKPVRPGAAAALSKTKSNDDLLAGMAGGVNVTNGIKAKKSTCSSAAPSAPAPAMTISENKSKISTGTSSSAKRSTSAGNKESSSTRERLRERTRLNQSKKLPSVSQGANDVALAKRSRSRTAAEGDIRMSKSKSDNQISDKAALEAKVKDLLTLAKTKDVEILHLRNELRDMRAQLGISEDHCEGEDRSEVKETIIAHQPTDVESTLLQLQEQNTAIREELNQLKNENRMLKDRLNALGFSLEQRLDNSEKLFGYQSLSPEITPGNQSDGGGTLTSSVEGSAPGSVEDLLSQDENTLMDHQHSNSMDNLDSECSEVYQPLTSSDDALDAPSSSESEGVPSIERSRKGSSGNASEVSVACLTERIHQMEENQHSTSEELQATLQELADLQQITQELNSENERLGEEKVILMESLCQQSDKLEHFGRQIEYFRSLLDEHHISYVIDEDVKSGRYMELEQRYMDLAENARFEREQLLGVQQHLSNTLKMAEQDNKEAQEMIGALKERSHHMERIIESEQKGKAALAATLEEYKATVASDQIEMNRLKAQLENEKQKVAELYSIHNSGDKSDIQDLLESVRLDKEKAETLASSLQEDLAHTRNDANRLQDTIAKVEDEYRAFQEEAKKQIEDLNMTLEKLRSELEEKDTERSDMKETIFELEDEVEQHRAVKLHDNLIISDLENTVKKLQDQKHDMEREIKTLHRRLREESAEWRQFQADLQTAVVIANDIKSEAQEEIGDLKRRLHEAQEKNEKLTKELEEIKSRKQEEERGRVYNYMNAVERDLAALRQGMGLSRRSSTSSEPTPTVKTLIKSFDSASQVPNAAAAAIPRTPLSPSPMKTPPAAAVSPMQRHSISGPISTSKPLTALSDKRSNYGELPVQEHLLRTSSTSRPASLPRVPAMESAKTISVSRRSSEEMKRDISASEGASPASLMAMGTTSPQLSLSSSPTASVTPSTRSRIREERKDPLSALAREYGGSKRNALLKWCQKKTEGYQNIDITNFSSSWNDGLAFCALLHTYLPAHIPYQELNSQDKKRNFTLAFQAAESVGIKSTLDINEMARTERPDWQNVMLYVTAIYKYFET
Experiment: co-IP

non-muscle myosin IIB (NM-IIB) component MYH10 (from UniProt Q61879 1-1976)
binding: binds
